From the supplement of paper PMC7877785
± gives the uncertainty stated by the source. Many entries were measured with a wide error.

Assay: self-splicing fitness, log relative to wild type (ln ratio); higher = more splicing; Tetrahymena group I intron in knt gene, E. coli kanamycin selection, DiMSum; sequences stand for … in CUCUCU…GGAGGGAAAAGUUAUCAGGCAUGCACCUGGUAGCUAGUCUUUAAACCAAUAGAUUGCAUCGGUUUAAAAGGCAAGACCGUCAAAUUGCGGGAAAGGGGUCAACAGCCGUUCAGUACCAAGUCUCAGGGGAAACUUUGAGAUGGCCUUGCAAAGGGUAUGGUAAUAAGCUGACGGACAUGGUCCUAACCACGCAGCCAAGUCCUAAGUCAACAGAUCUUCUGUUGAUAUGGAUGCAGUUCACAGACUAAAUGUCGGUCGGGGAAGAUGUAUUCUUCUCAUAAGAUAUAGUCGGACCUCUCCUUAAUGGGAGCUAGCGGAUGAAGUGAUGCAACACUGGAGCCGCUGGGAACUAAUUUGUAUGCGAAAGUAUAUUGAUUAGUUUUGGAGUACUCGUGGUCG
In short: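 A randomised library covering all eight P1ex-region intron nucleotides was built with the intron in the knt kanamycin-resistance gene on pET-22b(+) and held in E. coli BL21(DE3). Cells were grown overnight at 37°C or 30°C on LB agar, with or without 25 μg/mL kanamycin, plus 100 μg/mL carbenicillin, 50 μM IPTG and 0.2% rhamnose, and pooled colonies were amplicon-sequenced on an Illumina HiSeq 2500. DiMSum fitness is the error-weighted combination of wild-type-normalised replicate fold changes, kanamycin versus none.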

Sequence | self-splicing fitness (ln) (30 °C) | self-splicing fitness (ln) (37 °C)
AGGGAGCAAUAUUACGAGAA | -2.83 ± 0.55 | -2.13 ± 0.65
UCUCAGCAAUAUUACGCCAC | 0.271 ± 1.2 | –
CAUGAGCAAUAUUACGCGCC | -3.99 ± 0.74 | -2.94 ± 0.53
GGUGAGCAAUAUUACGGGGC | -2.25 ± 0.56 | –
AAAGAGCAAUAUUACGUGGC | – | -1.84 ± 0.52
CAUUAGCAAUAUUACGCCGA | -2.32 ± 0.19 | -2.18 ± 0.2
UUUUAGCAAUAUUACGUUGU | -2.65 ± 0.18 | -2.13 ± 0.24
GGAGAGCAAUAUUACGUAAU | -3.75 ± 0.59 | –
CGCGAGCAAUAUUACGUUCG | -3.21 ± 0.79 | -1.06 ± 0.8
AGCAAGCAAUAUUACGCUUC | -5.39 ± 0.5 | –
UUGGAGCAAUAUUACGCAAU | -3.59 ± 0.61 | -2.54 ± 0.5
GGUGAGCAAUAUUACGAUUA | -0.962 ± 0.83 | –
UAUUAGCAAUAUUACGGGGC | -3.78 ± 0.53 | -1.06 ± 0.55
CCAUAGCAAUAUUACGACCA | -2.52 ± 0.46 | -2.29 ± 0.63
GCGUAGCAAUAUUACGAAGG | -2.9 ± 0.6 | –
CAAGAGCAAUAUUACGCCCC | – | -1.33 ± 1.2
GGAUAGCAAUAUUACGUUCC | -2.94 ± 0.69 | -0.595 ± 1.4
CCCAAGCAAUAUUACGCUUC | -2.84 ± 0.18 | -3.15 ± 0.43
AAAUAGCAAUAUUACGCAGA | – | -3.04 ± 0.53
UUAAAGCAAUAUUACGCGAA | -0.169 ± 0.15 | 0.0649 ± 0.18
UCAGAGCAAUAUUACGCCCG | – | -1.37 ± 0.65

Sequence | self-splicing fitness (ln) (30 °C) | self-splicing fitness (ln) (37 °C)
CUGGAGCAAUAUUACGCGUA | -3.23 ± 1 | –
UAGUAGCAAUAUUACGUAUG | -1.82 ± 0.1 | -0.711 ± 0.12
GUAGAGCAAUAUUACGCGGU | -2.88 ± 0.55 | -2.44 ± 0.78
GCAGAGCAAUAUUACGCAAA | – | -2.66 ± 0.54
GUUGAGCAAUAUUACGUCCC | – | -0.693 ± 1.4
UCUGAGCAAUAUUACGCACC | – | -3.47 ± 1
CCGAAGCAAUAUUACGAACA | -4.23 ± 0.59 | –
GGCGAGCAAUAUUACGCGGG | -3.87 ± 0.54 | –
GCAGAGCAAUAUUACGAACG | -2.03 ± 0.66 | –
CCUUAGCAAUAUUACGAACU | -4.05 ± 0.72 | -2 ± 0.64
UGUCAGCAAUAUUACGGCGC | -2.76 ± 0.21 | -1.65 ± 0.19
GCGAAGCAAUAUUACGGCUU | – | -3.23 ± 1
UAGGAGCAAUAUUACGAUAC | -4.56 ± 0.32 | -1.86 ± 0.28
UUAGAGCAAUAUUACGGGAA | -2.25 ± 0.16 | -0.296 ± 0.16
CGAUAGCAAUAUUACGCUAC | – | -3.08 ± 0.6
GCUGAGCAAUAUUACGCUCC | – | -1.78 ± 1.2
ACCGAGCAAUAUUACGGCAG | – | -3.9 ± 0.72
GAAUAGCAAUAUUACGAAGG | -2.77 ± 0.27 | -3.62 ± 0.73
UCGAAGCAAUAUUACGCUCG | -2.53 ± 0.31 | -1.39 ± 0.27
UCGAAGCAAUAUUACGCCGC | – | -2.34 ± 0.63
GUUGAGCAAUAUUACGAGAA | -2.04 ± 0.82 | –

Sequence | self-splicing fitness (ln) (30 °C) | self-splicing fitness (ln) (37 °C)
UGGGAGCAAUAUUACGGCAU | -3.97 ± 0.73 | –
CGGGAGCAAUAUUACGCGAU | -4.83 ± 0.72 | –
GAUUAGCAAUAUUACGCAGG | -2.54 ± 0.65 | –
CUCCAGCAAUAUUACGGGCC | – | -3.53 ± 0.73
CACUAGCAAUAUUACGGACC | -3.83 ± 0.72 | –
CUUUAGCAAUAUUACGGAAC | -2.49 ± 0.55 | –
UAGAAGCAAUAUUACGCUGC | – | -2.04 ± 0.81
GGGAAGCAAUAUUACGCCAC | – | -2.89 ± 0.74
CGCGAGCAAUAUUACGAGUC | -2.7 ± 0.38 | -1.57 ± 0.29
CUUCAGCAAUAUUACGCCAA | -2.09 ± 1 | –
CCGGAGCAAUAUUACGACCU | – | -2.03 ± 0.56
GCGGAGCAAUAUUACGUUCC | -2.04 ± 0.82 | -1.69 ± 0.81
GUGAAGCAAUAUUACGAGCC | -3.63 ± 1 | –
CGCGAGCAAUAUUACGCUCA | -2.09 ± 1.4 | –
CCGCAGCAAUAUUACGAGAC | – | -1.89 ± 0.51
GUGUAGCAAUAUUACGGCUG | -3.23 ± 0.23 | -1.28 ± 0.25
UCCGAGCAAUAUUACGACCG | – | -0.927 ± 1.2
UCGGAGCAAUAUUACGUUAG | -4.67 ± 0.51 | –
CCGUAGCAAUAUUACGGAUU | -5.12 ± 0.72 | –

Copied from the listing for reference:
Sequence | self-splicing fitness (ln) (30 °C) | self-splicing fitness (ln) (37 °C)
GAUUAGCAAUAUUACGCAGG | -2.54 ± 0.65 | –
CUCCAGCAAUAUUACGGGCC | – | -3.53 ± 0.73
CACUAGCAAUAUUACGGACC | -3.83 ± 0.72 | –
CUUUAGCAAUAUUACGGAAC | -2.49 ± 0.55 | –
UAGAAGCAAUAUUACGCUGC | – | -2.04 ± 0.81
GGGAAGCAAUAUUACGCCAC | – | -2.89 ± 0.74
CGCGAGCAAUAUUACGAGUC | -2.7 ± 0.38 | -1.57 ± 0.29
CUUCAGCAAUAUUACGCCAA | -2.09 ± 1 | –
CCGGAGCAAUAUUACGACCU | – | -2.03 ± 0.56
GCGGAGCAAUAUUACGUUCC | -2.04 ± 0.82 | -1.69 ± 0.81
GUGAAGCAAUAUUACGAGCC | -3.63 ± 1 | –
CGCGAGCAAUAUUACGCUCA | -2.09 ± 1.4 | –
CCGCAGCAAUAUUACGAGAC | – | -1.89 ± 0.51
GUGUAGCAAUAUUACGGCUG | -3.23 ± 0.23 | -1.28 ± 0.25
